The subject of the experiment is HeLa (human cervical cancer). Briefly: Cytotoxicity assay (CellTiter-Glo), HeLa. The class given is cell-based. To be noted: 72 h, read-out: Absolute IC50. The source says:
Determination of the Half Maximal Inhibition Concentration IC50: • 1.

pIC50: −log10 of the molar value.

For orientation: pIC50 means −log10 of the IC50, conventionally taken in molar units.

With `N.N.[Cl][Pt][Cl]` [Cisplatin, reference compound], the pIC50 was 6.57.

The values above are taken from patent US20220002293A1, “8-CYCLOPENTYL-7-OXO-2-(4-PIPERAZIN-1-YL-PHENYLAMINO)-7, 8-DIHYDRO-PYRIDO [2,3-D]PYRIMIDINE-6-CARBONITRILE AND USES THEREOF IN TREATING PROLIFERATIVE DISORDERS” (ONCONOVA THERAPEUTICS, INC., priority 2018, published 2022).
